According to paper PMC9731694, “SRSF5‐Mediated Alternative Splicing of M Gene is Essential for Influenza A Virus Replication: A Host‐Directed Target Against Influenza Virus” (Advanced Science, 2022):
These are yes or no findings as the source states them, for the method shown. For some assays here: Binding seen in cells or lysates may run through a third protein. Some entries that bind do so weakly or less than the wild type. For some assays here: Sequences can lack the tags named with a protein.

Sequences of proteins named here, by UniProt entry; tags and fusion partners are left off. A change or cut given only in a name is not applied to a line headed by its entry.
UniProt P08621: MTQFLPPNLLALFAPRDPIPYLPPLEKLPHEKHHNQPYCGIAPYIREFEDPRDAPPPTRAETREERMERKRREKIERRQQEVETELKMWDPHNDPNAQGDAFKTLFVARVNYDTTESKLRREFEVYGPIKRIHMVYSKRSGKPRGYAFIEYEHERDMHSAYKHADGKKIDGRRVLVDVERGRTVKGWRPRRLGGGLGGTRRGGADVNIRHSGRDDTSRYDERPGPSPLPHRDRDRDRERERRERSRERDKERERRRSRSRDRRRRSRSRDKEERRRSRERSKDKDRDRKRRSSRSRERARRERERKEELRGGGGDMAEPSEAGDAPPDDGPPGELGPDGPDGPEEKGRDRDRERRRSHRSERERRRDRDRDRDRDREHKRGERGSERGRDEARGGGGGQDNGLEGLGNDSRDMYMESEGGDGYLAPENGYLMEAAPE
UniProt P09234: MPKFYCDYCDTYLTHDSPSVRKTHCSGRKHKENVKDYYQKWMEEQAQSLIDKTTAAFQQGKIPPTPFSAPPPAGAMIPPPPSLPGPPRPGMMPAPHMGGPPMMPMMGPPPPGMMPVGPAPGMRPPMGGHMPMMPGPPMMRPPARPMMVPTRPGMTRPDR
UniProt P09012: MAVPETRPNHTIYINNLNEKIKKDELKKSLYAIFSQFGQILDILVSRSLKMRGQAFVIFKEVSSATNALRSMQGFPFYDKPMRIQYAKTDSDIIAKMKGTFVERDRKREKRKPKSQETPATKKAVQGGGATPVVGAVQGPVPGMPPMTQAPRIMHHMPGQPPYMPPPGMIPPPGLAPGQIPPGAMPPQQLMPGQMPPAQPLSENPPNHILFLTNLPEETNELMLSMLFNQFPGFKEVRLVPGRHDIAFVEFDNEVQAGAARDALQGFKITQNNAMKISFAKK

Legend:
HA-tagged SRSF5 (human) = biological target: T1, HA-tagged SRSF5 (human) (UniProt Q13243); test: co-IP; HEK293 cells cotransfected with HA-tagged SRSF5 and Flag-U1A, Flag-U1C or Flag-U1-70k
T1 sequence: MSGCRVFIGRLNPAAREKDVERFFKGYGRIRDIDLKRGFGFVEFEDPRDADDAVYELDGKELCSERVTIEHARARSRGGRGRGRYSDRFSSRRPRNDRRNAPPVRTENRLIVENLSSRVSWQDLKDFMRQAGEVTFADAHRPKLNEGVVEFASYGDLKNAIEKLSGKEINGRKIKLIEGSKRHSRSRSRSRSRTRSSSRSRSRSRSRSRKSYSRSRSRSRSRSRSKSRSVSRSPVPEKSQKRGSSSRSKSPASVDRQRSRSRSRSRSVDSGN

[1] = biological target: T2, purified recombinant SRSF5-Flag (human) (UniProt Q13243); test: pull-down; purified SRSF5-Flag added to srsf5-/- HEK293 cell lysate 1 h at 4 °C, Flag-M2 affinity beads 1 h at 4 °C; washes at the low end of the salt series (from 200 mM NaCl); immunoblot for U1A and U1-70K; only the target purified
T2 sequence: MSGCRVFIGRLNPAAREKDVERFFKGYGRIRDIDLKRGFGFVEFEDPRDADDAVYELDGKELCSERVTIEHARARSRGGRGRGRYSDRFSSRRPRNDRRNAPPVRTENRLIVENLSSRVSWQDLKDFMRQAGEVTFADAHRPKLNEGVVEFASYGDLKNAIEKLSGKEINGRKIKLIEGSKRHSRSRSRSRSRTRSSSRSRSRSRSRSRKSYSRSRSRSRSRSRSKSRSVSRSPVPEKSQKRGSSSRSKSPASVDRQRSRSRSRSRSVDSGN

[2] = biological target: T2, purified recombinant SRSF5-Flag (human); test: pull-down; as a4, salt sensitivity test: washes at 300-400 mM NaCl; only the target purified
[3] = biological target: T3, serine and arginine-rich splicing factor 5 (SRSF5), endogenous (human (endogenous in A549 or HEK293)) (UniProt Q13243); test: proximity ligation
T3 sequence: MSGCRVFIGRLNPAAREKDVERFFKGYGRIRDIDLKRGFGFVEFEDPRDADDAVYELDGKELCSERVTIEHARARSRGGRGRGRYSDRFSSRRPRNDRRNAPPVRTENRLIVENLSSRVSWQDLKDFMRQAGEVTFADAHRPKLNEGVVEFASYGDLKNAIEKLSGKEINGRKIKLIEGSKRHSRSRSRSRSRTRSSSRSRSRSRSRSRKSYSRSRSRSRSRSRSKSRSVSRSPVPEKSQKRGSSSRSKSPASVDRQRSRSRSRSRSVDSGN

[4] = biological target: T3, serine and arginine-rich splicing factor 5 (SRSF5), endogenous (human (endogenous in A549 or HEK293)); test: co-IP
[5] = biological target: GST-U1-70K-His (human (amplified from A549 cells)) (UniProt P08621); test: condition: 300 ng SRSF5-Flag with 150 ng GST-tagged protein in 300 µL; pull-down; GST pulldown: 300 ng purified SRSF5-Flag with 150 ng glutathione-bound GST-tagged protein, 300 µL, 1 h at 4 °C; 50 mM Tris pH 7.5, 200 mM NaCl, 10% glycerol, 0.5% Triton-X-100, RNaseA; blot with anti-Flag or anti-His; both purified
[6] = biological target: GST-U1C-His (human (amplified from A549 cells)) (UniProt P09234); test: as above

Molecule: Flag-U1A (from UniProt P09012 1-282)
- binding (HA-tagged SRSF5 (human)): binds

Molecule: Flag-U1C (from UniProt P09234 1-159)
- binding (HA-tagged SRSF5 (human)): no binding

Molecule: U1A, core protein component of U1 snRNP, endogenous (from UniProt P09012 1-282)
- binding [1]: binds
- binding [2]: binds
- binding [3]: binds
- binding [4]: binds

B1: purified recombinant SRSF5-Flag (natural protein, human, UniProt Q13243 1-272, looked up)
chain: MSGCRVFIGRLNPAAREKDVERFFKGYGRIRDIDLKRGFGFVEFEDPRDADDAVYELDGKELCSERVTIEHARARSRGGRGRGRYSDRFSSRRPRNDRRNAPPVRTENRLIVENLSSRVSWQDLKDFMRQAGEVTFADAHRPKLNEGVVEFASYGDLKNAIEKLSGKEINGRKIKLIEGSKRHSRSRSRSRSRTRSSSRSRSRSRSRSRKSYSRSRSRSRSRSRSKSRSVSRSPVPEKSQKRGSSSRSKSPASVDRQRSRSRSRSRSVDSGN
notes: also called hSRSF5-Flag; Flag-SRSF5
- binding [5]: no binding
- binding [6]: no binding
